In assay [1] the target is mesothelin protein (Acrobiosystems, cat #MSN-H5223) (UniProt Q13421). Briefly: ELISA on coated mesothelin peptide.
For assay [2] the target is unchanged. Briefly: screening ELISA of hybridoma clones.

The chains behind the UniProt entries cited, without tags or fusion partners. Where a name states a change or a piece, a line headed by the entry shows the natural chain unless it says otherwise. A line that says so, or that is headed by a name, gives the form on record, which may keep a tag or linker.
mesothelin protein (Acrobiosystems, cat #MSN-H5223) (Q13421, form named): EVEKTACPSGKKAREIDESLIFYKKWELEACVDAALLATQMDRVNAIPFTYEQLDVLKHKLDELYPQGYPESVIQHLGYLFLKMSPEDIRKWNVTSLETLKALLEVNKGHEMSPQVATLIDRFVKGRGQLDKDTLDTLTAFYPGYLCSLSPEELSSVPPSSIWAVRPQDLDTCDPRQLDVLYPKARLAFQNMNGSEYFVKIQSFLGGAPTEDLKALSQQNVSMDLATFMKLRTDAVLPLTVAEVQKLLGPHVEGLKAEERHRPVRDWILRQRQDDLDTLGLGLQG

These are yes or no findings as the source states them, for the method shown. Some binding calls cover weakened binding; strength is not graded here.

B1: 5A9 antibody (antibody, V domains shown)
VH: EVQLEESGPAVIKPSQSLSLTCIVSGFSITSSSYCWHWIRQPPGKGLEWMGRICYEGSIYYSPSIKSRFTISRDTSLNKFFIQLSSVTNEDTAMYYCSRENRLLKDAMDYWGQGTSVTVSS
VL: DIVMTQSPSSLAVSAGEKVTMSCKSSQSLLSSRTRKNYLAWYQQKPGQSPKLLIYWASTRESGVPDRFTGSGSGTDFTLTISSVQAEDLAVYYCKQSYNLRTFGGGTKLEIK
As for B1, the binding result in assay [1] and in assay [2] was “binds” throughout.

B2: 4G11 antibody (antibody, V domains shown)
VH: EVQLQQSGPELVKTGDSVKISCKASGYSFTGYYMHWVKQSHGKSLEWIGYISCYNGATSYSQKFKGKATFTVDTSSSTAYMQFNSLTSEDSAVYYCARWDRDWFAYWGQGTLVTVSA
VL: DIVMTQSHKFMSTSVGDRVSITCKASQDVGIAVAWYQQKPGQSPKLLIYWASTRHTGVPDRFTGSGSGTDFTLTISNVQSEDLADYFCQQYSSYPFTFGSGTKLEIK
Turning to B2, the binding entry in assay [1] and in assay [2] was “binds” throughout.

B3: 9E11 antibody (antibody, V domains shown)
VH: QVQLKESGPGLVKPSQSLSLTCTVTGYSITSDYAWNWIRQFPGNKLEWMGYISYSGSTRYNPSLKSRISITRDTSKNQFFLQLNSVTTEDTATYYCARGAAGFAYWGQGTLVTVSA
VL: DIVMTQSPASQSASLGESVTITCLASQTIGTWLAWYQQKPGKSPQLLIYAATSLADGVPSRFSGSGSGTEFSFKISSLQAEDFVSYYCQQLYSTPWTFGGGTKLEIK
As to B3, the binding entry in assay [1] and in assay [2] was “binds” each time.
